The source of these data is the supplement of paper PMC8728848.

This is one part of the list.

What all share (assay): glycan array binding signal (z-score within array); higher = stronger binding
Conditions in all cases: glycan notation: IUPAC condensed, linker removed

One assay has as its target Gal(b1-4)Glc6S. In a few lines:
(§1)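 Columns mapping to the same glycan were averaged after glycan names were converted to IUPAC-condensed notation. The data come from 3228 arrays in the Consortium for Functional Glycomics database, limited to those with an available protein sequence. Binding is reported as a within-array Z-score averaged across arrays of one protein sequence and across linkers.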

For a further assay, the target named is Gal(b1-4)GlcNAc. Put shortly:
as §1

Assay [1] concerns the target Gal(b1-4)GlcNAc(a1-6)Gal(b1-4)GlcNAc. Put shortly: as §1
The next assay concerns the target Gal(b1-4)GlcNAc(b1-2)Man. In a few lines: as §1
In assay [2] the target is Gal(b1-4)GlcNAc(b1-2)Man(a1-3)Man(b1-4)GlcNAc(b1-4)GlcNAc. In a few lines:
as §1

Assay [3] addresses Gal(b1-4)GlcNAc(b1-2)Man(a1-3)[Gal(b1-4)GlcNAc(b1-2)Man(a1-6)]Man(b1-4)GlcNAc(b1-4)GlcNAc. In a few lines:
as §1

The target in assay [4] is Gal(b1-4)GlcNAc(b1-2)Man(a1-3)[Gal(b1-4)GlcNAc(b1-2)Man(a1-6)]Man(b1-4)GlcNAc(b1-4)[Fuc(a1-6)]GlcNAc. In a few lines:
as §1

Assay [5] addresses Gal(b1-4)GlcNAc(b1-2)Man(a1-3)[Gal(b1-4)GlcNAc(b1-2)Man(a1-6)][Gal(b1-4)GlcNAc(b1-4)]Man(b1-4)GlcNAc(b1-4)[Fuc(a1-6)]GlcNAc. Put shortly:
as §1

Assay [6] concerns the target Gal(b1-4)GlcNAc(b1-2)Man(a1-3)[Gal(b1-4)GlcNAc(b1-2)Man(a1-6)][GlcNAc(b1-4)]Man(b1-4)GlcNAc(b1-4)[Fuc(a1-6)]GlcNAc. In a few lines:
as §1

For assay [7], the target named is Gal(b1-4)GlcNAc(b1-2)Man(a1-3)[GlcNAc(b1-2)Man(a1-6)]Man(b1-4)GlcNAc(b1-4)GlcNAc. Put shortly:
as §1

The target in assay [8] is Gal(b1-4)GlcNAc(b1-2)Man(a1-3)[GlcNAc(b1-4)][Gal(b1-4)GlcNAc(b1-2)Man(a1-6)]Man(b1-4)GlcNAc(b1-4)GlcNAc. In a few lines:
as §1

For assay [9], the target named is Gal(b1-4)GlcNAc(b1-2)Man(a1-3)[Man(a1-6)]Man(b1-4)GlcNAc(b1-4)GlcNAc. Put shortly:
as §1

Assay [10] addresses Gal(b1-4)GlcNAc(b1-2)Man(a1-6)Man(b1-4)GlcNAc(b1-4)GlcNAc. In a few lines: as §1
Assay [11] addresses Gal(b1-4)GlcNAc(b1-2)Man(a1-6)[GlcNAc(b1-2)Man(a1-3)]Man(b1-4)GlcNAc(b1-4)GlcNAc. Put shortly:
as §1

The target of assay [12] is Gal(b1-4)GlcNAc(b1-2)Man(a1-6)[Man(a1-3)]Man(b1-4)GlcNAc(b1-4)GlcNAc. In a few lines: as §1
Assay [13] addresses Gal(b1-4)GlcNAc(b1-2)[Gal(b1-4)GlcNAc(b1-4)]Man(a1-3)[Gal(b1-4)GlcNAc(b1-2)Man(a1-6)]Man(b1-4)GlcNAc(b1-4)GlcNAc. In a few lines: as §1
For assay [14], the target named is Gal(b1-4)GlcNAc(b1-2)[Gal(b1-4)GlcNAc(b1-4)]Man(a1-3)[Gal(b1-4)GlcNAc(b1-2)[Gal(b1-4)GlcNAc(b1-6)]Man(a1-6)]Man(b1-4)GlcNAc(b1-4)GlcNAc. In a few lines: as §1
In assay [15] the target is Gal(b1-4)GlcNAc(b1-2)[Gal(b1-4)GlcNAc(b1-4)]Man(a1-3)[GlcNAc(b1-4)][Gal(b1-4)GlcNAc(b1-2)Man(a1-6)]Man(b1-4)GlcNAc(b1-4)GlcNAc. In a few lines: as §1
Assay [16] has as its target Gal(b1-4)GlcNAc(b1-2)[Gal(b1-4)GlcNAc(b1-4)]Man(a1-3)[GlcNAc(b1-4)][Gal(b1-4)GlcNAc(b1-2)[Gal(b1-4)GlcNAc(b1-6)]Man(a1-6)]Man(b1-4)GlcNAc(b1-4)GlcNAc. In a few lines:
as §1

Assay [17] deals with Gal(b1-4)GlcNAc(b1-2)[Gal(b1-4)GlcNAc(b1-6)]Man(a1-6)[Gal(b1-4)GlcNAc(b1-2)Man(a1-3)]Man(b1-4)GlcNAc(b1-4)GlcNAc. Put shortly: as §1
In assay [18] the target is Gal(b1-4)GlcNAc(b1-2)[Gal(b1-4)GlcNAc(b1-6)]Man(a1-6)[Gal(b1-4)GlcNAc(b1-2)Man(a1-3)]Man(b1-4)GlcNAc(b1-4)[Fuc(a1-6)]GlcNAc. In a few lines:
as §1

In assay [19] the target is Gal(b1-4)GlcNAc(b1-2)[Gal(b1-4)GlcNAc(b1-6)]Man(a1-6)[GlcNAc(b1-4)][Gal(b1-4)GlcNAc(b1-2)Man(a1-3)]Man(b1-4)GlcNAc(b1-4)GlcNAc. Put shortly:
as §1

B1: HFR-3 (Triticum aestivum) (protein)
chain: MKGLLLCALALAFAAVTTHAQLQSCPTRCGKQADGMECPNNLCCSKDGYCGLGVDYCSAGAGCQSGACYDNKICGAQANGTLCRNNHCCSSGGRCGYGREYCSNGCQGGPCWADLKCGHLDNGKLCPNNLCCSQYGYCGLGPEFCGTGCQNGACSTDKPCGNKANGAPCTNNYCCSQYGSCGLGKDYCGTGCQNGACN
With B1, the “glycan array binding signal (z-score)” value is -0.282 with Gal(b1-4)Glc6S; -0.853 with Gal(b1-4)GlcNAc; -0.215 in [1]; -0.716 with Gal(b1-4)GlcNAc(b1-2)Man; -0.057 in [2]; -0.641 in assay [3]. Further, the “glycan array binding signal (z-score)” value in assay [4] is -0.352; in assay [5], -0.212; in assay [6], -0.204; in [7], -0.437; in assay [8] it was -1.47; in [9] it was -0.491. The “glycan array binding signal (z-score)” value in [10] is -0.488; in [11], -0.741; in assay [12], -0.608; in [13], -1.05; in [14], -1.23; in assay [15], -0.238. For the same molecule, the “glycan array binding signal (z-score)” value is -0.437 in [16], 0.188 in assay [17], -0.167 in [18] and 1.51 in assay [19].
